{"source": "PubChem BioAssay AID624256", "about": "(NMMLSC, 2012)", "note": "The other results are listed elsewhere or left out.", "data": [{"assay": "induction of myeloid progenitor differentiation, primary screen, cell-based, flow cytometry, MLPCN library (AID 624256);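 further: cells exposed to compound for four days before flow analysis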", "conditions": "ER-HoxA9 myeloid progenitors, lysozyme-GFP differentiation, measured here: differentiation confirmed by MAC1 staining, at 10 µM, stronger effect = higher value", "units": {"GFP+ MAC1+ double positive": "%"}, "values": [{"compound": "CN1CCC(Nc2ccc(Cl)cc2)CC1", "GFP+ MAC1+ double positive": 0.6}, {"compound": "COc1cccc(C(c2nnnn2C2CCCC2)N2CCC(n3c(=O)[nH]c4ccccc43)CC2)c1OC", "note": "(stereo not given)", "GFP+ MAC1+ double positive": 2}, {"compound": "COc1cc(OC)cc(C(=O)NCC2(N3CCOCC3)CCCCC2)c1", "GFP+ MAC1+ double positive": 0.1}, {"compound": "COc1cccc(C(=O)N(c2cc(C)cc(C)c2)C2CCN(C(=O)OC(C)(C)C)CC2)c1", "GFP+ MAC1+ double positive": 0.3}, {"compound": "CCC(CO)(C(=O)OC1CN2CCC1CC2)c1ccccc1", "note": "(stereo not given)", "GFP+ MAC1+ double positive": 1.4}, {"compound": "O=C(O)C1(Nc2ccccc2)CCN(Cc2ccccc2)CC1", "GFP+ MAC1+ double positive": 0.7}, {"compound": "NN(c1ccccc1)C1CCN(CCc2ccccc2)CC1", "GFP+ MAC1+ double positive": 1.6}, {"compound": "CC(C)(C)OC(=O)N1CCC(Nc2ccccc2)CC1", "GFP+ MAC1+ double positive": 0.4}, {"compound": "CCCOc1ccc(C(=O)NCC2(N(C)C)CCCCC2)cc1", "GFP+ MAC1+ double positive": 0.4}, {"compound": "O=c1[nH]c2ccccc2n1C1CCN(C(c2cc3ccccc3o2)c2nnnn2C2CCCC2)CC1", "note": "(stereo not given)", "GFP+ MAC1+ double positive": 0.8}, {"compound": "CN1CCC(Nc2ccc(F)c(Cl)c2)CC1", "GFP+ MAC1+ double positive": 1.1}, {"compound": "CCOc1ncccc1C(=O)NCC1(N2CCOCC2)CCCCC1", "GFP+ MAC1+ double positive": 0.8}, {"compound": "Cn1c(=O)[nH]cc(N(CCCl)CCCl)c1=O", "GFP+ MAC1+ double positive": 1.4}, {"compound": "CN(C)c1ccc(C(=O)NCC2(N3CCCCC3)CCCCC2)cc1", "GFP+ MAC1+ double positive": 0.7}, {"compound": "O=C(NCC1(N2CCCCC2)CCCCC1)c1ccco1", "GFP+ MAC1+ double positive": 0.8}, {"compound": "CC(C)(C)n1nnnc1C(c1ccnc2ccccc12)N1CCC(n2c(=O)[nH]c3ccccc32)CC1", "note": "(stereo not given)", "GFP+ MAC1+ double positive": 0.7}, {"compound": "COc1ccc(C(c2nnnn2C2CCCCC2)N2CCC(n3c(=O)[nH]c4ccccc43)CC2)cc1", "note": "(stereo not given)", "GFP+ MAC1+ double positive": 1.8}, {"compound": "CCN1CCC(Nc2cccc(F)c2)CC1", "GFP+ MAC1+ double positive": 1.3}, {"compound": "Cc1ccccc1NC1(C#N)CCN(Cc2ccccc2)CC1", "GFP+ MAC1+ double positive": 0.4}, {"compound": "Fc1ccccc1NC1CCN(Cc2ccccc2)CC1", "GFP+ MAC1+ double positive": 2}, {"compound": "Cc1ccc(C(=O)NCC2(N3CCCCC3)CCCCC2)o1", "GFP+ MAC1+ double positive": 1}, {"compound": "Cc1ccc(NC2(C#N)CCN(Cc3ccccc3)CC2)cc1", "GFP+ MAC1+ double positive": 2.2}, {"compound": "CCC(c1nnnn1C1CCCCC1)N1CCC(n2c(=O)[nH]c3ccccc32)CC1", "note": "(stereo not given)", "GFP+ MAC1+ double positive": 0.4}, {"compound": "CC(=O)N(c1ccccc1)C1CCNCC1", "GFP+ MAC1+ double positive": 0.6}, {"compound": "COc1cccc(C(c2nnnn2C2CCCCC2)N2CCC(n3c(=O)[nH]c4ccccc43)CC2)c1OC", "note": "(stereo not given)", "GFP+ MAC1+ double positive": 3}, {"compound": "O=c1[nH]c2ccccc2n1C1CCN(C(c2ccnc3ccccc23)c2nnnn2C2CCCCC2)CC1", "note": "(stereo not given)", "GFP+ MAC1+ double positive": 1.6}, {"compound": "COc1cc(OC)cc(C(=O)NCC2(N3CCCCC3)CCCCC2)c1", "GFP+ MAC1+ double positive": 0.6}, {"compound": "CC(C)(C)n1nnnc1C(c1cccc2ccccc12)N1CCC(n2c(=O)[nH]c3ccccc32)CC1", "note": "(stereo not given)", "GFP+ MAC1+ double positive": 0.8}, {"compound": "CN(C)C1(CNC(=O)c2cccc(C#N)c2)CCCCC1", "GFP+ MAC1+ double positive": 0.6}, {"compound": "O=c1[nH]c2ccccc2n1C1CCN(C(c2ccccc2)c2nnnn2C2CCCC2)CC1", "note": "(stereo not given)", "GFP+ MAC1+ double positive": 0.8}, {"compound": "CCCN1CCC(Nc2cc(OC)cc(OC)c2)CC1", "GFP+ MAC1+ double positive": 0.7}, {"compound": "c1ccc(CN2CCC(Nc3ccccc3)CC2)cc1", "GFP+ MAC1+ double positive": 0.4}, {"compound": "N#Cc1ccc(C(=O)NCC2(N3CCCCC3)CCCCC2)cc1", "GFP+ MAC1+ double positive": 0.5}, {"compound": "CC(C)(C)OC(=O)N1CCC(N(C(=O)c2ccccc2)c2ccc(Cl)cc2)CC1", "GFP+ MAC1+ double positive": 0.2}, {"compound": "O=c1[nH]c2ccccc2n1C1CCN(C(c2cccs2)c2nnnn2C2CCCC2)CC1", "note": "(stereo not given)", "GFP+ MAC1+ double positive": 1}, {"compound": "O=C(OC1CN2CCC1CC2)C1c2ccccc2C=Cc2ccccc21", "note": "(stereo not given)", "GFP+ MAC1+ double positive": 0.2}, {"compound": "CCCCn1nnnc1C(c1cccc(OC)c1OC)N1CCC(n2c(=O)[nH]c3ccccc32)CC1", "note": "(stereo not given)", "GFP+ MAC1+ double positive": 0.8}, {"compound": "COc1cccc(C(c2nnnn2C(C)(C)C)N2CCC(n3c(=O)[nH]c4ccccc43)CC2)c1OC", "note": "(stereo not given)", "GFP+ MAC1+ double positive": 0.6}, {"compound": "N/C(=N\\O)c1c(N)no[n+]1[O-]", "GFP+ MAC1+ double positive": 0.6}, {"compound": "O=c1[nH]c2ccccc2n1C1CCN(C(c2cccs2)c2nnnn2C2CCCCC2)CC1", "note": "(stereo not given)", "GFP+ MAC1+ double positive": 1.2}, {"compound": "O=c1[nH]c2ccccc2n1C1CCN(C(c2ccnc3ccccc23)c2nnnn2C2CCCC2)CC1", "note": "(stereo not given)", "GFP+ MAC1+ double positive": 1}, {"compound": "COc1ccc(C(=O)NCC2(N3CCOCC3)CCCCC2)cc1OC", "GFP+ MAC1+ double positive": 0.9}, {"compound": "COc1cc(C(=O)NCC2(N3CCOCC3)CCCCC2)cc(OC)c1C", "GFP+ MAC1+ double positive": 0.3}, {"compound": "CCCCn1nnnc1C(c1ccccc1)N1CCC(n2c(=O)[nH]c3ccccc32)CC1", "note": "(stereo not given)", "GFP+ MAC1+ double positive": 1}, {"compound": "O=C(NCC1(N2CCOCC2)CCCCC1)c1cc(Br)ccc1Cl", "GFP+ MAC1+ double positive": 1}, {"compound": "COc1ccc(C(c2nnnn2C2CCCC2)N2CCC(n3c(=O)[nH]c4ccccc43)CC2)cc1", "note": "(stereo not given)", "GFP+ MAC1+ double positive": 0.3}, {"compound": "CCCOc1ccc(C(=O)NCC2(N(C)C)CCCCC2)cc1OC", "GFP+ MAC1+ double positive": 0.6}, {"compound": "Cc1ccc(C(=O)NCC2(N(C)C)CCCCC2)o1", "GFP+ MAC1+ double positive": 0.6}, {"compound": "O=C(NCC1(N2CCCCC2)CCCCC1)c1cncc(Br)c1", "GFP+ MAC1+ double positive": 1.4}, {"compound": "CN1CCC(Nc2cccc(F)c2)CC1", "GFP+ MAC1+ double positive": 4.9}, {"compound": "O=C(NCC1(N2CCOCC2)CCCCC1)c1cc(F)c(F)cc1Cl", "GFP+ MAC1+ double positive": 0.5}, {"compound": "CCC(c1nnnn1C(C)(C)C)N1CCC(n2c(=O)[nH]c3ccccc32)CC1", "note": "(stereo not given)", "GFP+ MAC1+ double positive": 1}, {"compound": "COc1cc(OC)c(C(=O)NCC2(N(C)C)CCCCC2)cc1OC", "GFP+ MAC1+ double positive": 0.4}, {"compound": "CCCCn1nnnc1C(c1ccnc2ccccc12)N1CCC(n2c(=O)[nH]c3ccccc32)CC1", "note": "(stereo not given)", "GFP+ MAC1+ double positive": 1.2}, {"compound": "CC(C)c1ccc(NC2CCN(C(=O)OC(C)(C)C)CC2)cc1", "GFP+ MAC1+ double positive": 0.6}, {"compound": "CCCCn1nnnc1C(c1ccccc1OC(F)(F)F)N1CCC(n2c(=O)[nH]c3ccccc32)CC1", "note": "(stereo not given)", "GFP+ MAC1+ double positive": 1.2}, {"compound": "CN(C)c1cccc(C(=O)NCC2(N3CCCCC3)CCCCC2)c1", "GFP+ MAC1+ double positive": 0.5}, {"compound": "COc1ccc(CN(CCCl)CCCl)cc1Cl", "GFP+ MAC1+ double positive": 0.7}, {"compound": "COc1cc(C(=O)NCC2(N3CCCCC3)CCCCC2)ccc1OC(F)F", "GFP+ MAC1+ double positive": 7.3}, {"compound": "O=C(NCC1(N2CCOCC2)CCCCC1)c1cc(=O)[nH]c2ccccc12", "GFP+ MAC1+ double positive": 1}, {"compound": "CCCCn1nnnc1C(c1cccc2ccccc12)N1CCC(n2c(=O)[nH]c3ccccc32)CC1", "note": "(stereo not given)", "GFP+ MAC1+ double positive": 1.2}, {"compound": "CN1CCN(CCOC(=O)C(O)(c2ccccc2)c2ccccc2)CC1", "GFP+ MAC1+ double positive": 1.2}, {"compound": "COc1ccc(NC2CCN(C(=O)OC(C)(C)C)CC2)cc1", "GFP+ MAC1+ double positive": 0.3}, {"compound": "CC(C)c1ccc(C(=O)NCC2(N3CCOCC3)CCCCC2)cc1", "GFP+ MAC1+ double positive": 1.7}, {"compound": "O=C(NCC1(N2CCCCC2)CCCCC1)c1cccc(C(F)(F)F)c1", "GFP+ MAC1+ double positive": 2}, {"compound": "N#CC1(Nc2ccccc2)CCN(CCc2ccccc2)CC1", "GFP+ MAC1+ double positive": 0.2}, {"compound": "CCN1CCC(Nc2ccc(Cl)cc2)CC1", "GFP+ MAC1+ double positive": 0.1}, {"compound": "CSc1ccc(C(=O)NCC2(N3CCOCC3)CCCCC2)cc1", "GFP+ MAC1+ double positive": 0.9}, {"compound": "O=C(NCC1(N2CCCCC2)CCCCC1)c1cccc([N+](=O)[O-])c1", "GFP+ MAC1+ double positive": 0.4}, {"compound": "O=C(NCC1(N2CCCCC2)CCCCC1)c1ccc(OC(F)F)cc1", "GFP+ MAC1+ double positive": 1.6}]}]}
